The supplement of paper PMC6411743
± gives the standard deviation of the averaged measurements. The list shows a part of the results, in another mix than the full data.

Chains of the proteins cited; added tags and fusions are not shown. Lines headed by an entry give the natural chain unless they say otherwise; changes in a name come on top.
UniProt Q7Z7H5: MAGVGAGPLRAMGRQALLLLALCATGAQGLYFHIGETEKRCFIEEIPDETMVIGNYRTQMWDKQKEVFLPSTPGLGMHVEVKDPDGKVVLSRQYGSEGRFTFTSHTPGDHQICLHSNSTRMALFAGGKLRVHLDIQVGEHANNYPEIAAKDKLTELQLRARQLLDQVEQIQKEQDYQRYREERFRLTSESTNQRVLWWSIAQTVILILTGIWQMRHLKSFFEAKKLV
UniProt Q86WA8: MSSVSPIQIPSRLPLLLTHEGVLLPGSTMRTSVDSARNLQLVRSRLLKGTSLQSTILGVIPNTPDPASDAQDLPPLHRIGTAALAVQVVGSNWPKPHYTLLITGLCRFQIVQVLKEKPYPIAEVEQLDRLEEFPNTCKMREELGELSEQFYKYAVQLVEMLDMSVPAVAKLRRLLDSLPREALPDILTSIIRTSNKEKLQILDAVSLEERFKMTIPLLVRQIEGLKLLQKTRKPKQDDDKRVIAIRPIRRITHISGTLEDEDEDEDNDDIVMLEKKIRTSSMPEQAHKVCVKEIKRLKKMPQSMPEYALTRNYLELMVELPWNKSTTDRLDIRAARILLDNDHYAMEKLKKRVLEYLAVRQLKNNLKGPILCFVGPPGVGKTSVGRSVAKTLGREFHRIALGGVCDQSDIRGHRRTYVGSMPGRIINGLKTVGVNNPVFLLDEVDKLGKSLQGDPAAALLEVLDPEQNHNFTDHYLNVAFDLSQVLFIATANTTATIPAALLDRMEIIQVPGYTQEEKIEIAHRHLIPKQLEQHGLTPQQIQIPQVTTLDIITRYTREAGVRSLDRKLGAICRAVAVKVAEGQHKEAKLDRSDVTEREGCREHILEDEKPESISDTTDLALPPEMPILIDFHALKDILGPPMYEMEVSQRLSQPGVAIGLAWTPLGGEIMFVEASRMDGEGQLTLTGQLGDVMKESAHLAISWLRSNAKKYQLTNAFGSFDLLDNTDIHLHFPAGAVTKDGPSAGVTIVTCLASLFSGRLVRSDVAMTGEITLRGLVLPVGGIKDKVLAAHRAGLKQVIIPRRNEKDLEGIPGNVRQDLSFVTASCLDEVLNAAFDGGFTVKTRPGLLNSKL
UniProt Q8N1G0: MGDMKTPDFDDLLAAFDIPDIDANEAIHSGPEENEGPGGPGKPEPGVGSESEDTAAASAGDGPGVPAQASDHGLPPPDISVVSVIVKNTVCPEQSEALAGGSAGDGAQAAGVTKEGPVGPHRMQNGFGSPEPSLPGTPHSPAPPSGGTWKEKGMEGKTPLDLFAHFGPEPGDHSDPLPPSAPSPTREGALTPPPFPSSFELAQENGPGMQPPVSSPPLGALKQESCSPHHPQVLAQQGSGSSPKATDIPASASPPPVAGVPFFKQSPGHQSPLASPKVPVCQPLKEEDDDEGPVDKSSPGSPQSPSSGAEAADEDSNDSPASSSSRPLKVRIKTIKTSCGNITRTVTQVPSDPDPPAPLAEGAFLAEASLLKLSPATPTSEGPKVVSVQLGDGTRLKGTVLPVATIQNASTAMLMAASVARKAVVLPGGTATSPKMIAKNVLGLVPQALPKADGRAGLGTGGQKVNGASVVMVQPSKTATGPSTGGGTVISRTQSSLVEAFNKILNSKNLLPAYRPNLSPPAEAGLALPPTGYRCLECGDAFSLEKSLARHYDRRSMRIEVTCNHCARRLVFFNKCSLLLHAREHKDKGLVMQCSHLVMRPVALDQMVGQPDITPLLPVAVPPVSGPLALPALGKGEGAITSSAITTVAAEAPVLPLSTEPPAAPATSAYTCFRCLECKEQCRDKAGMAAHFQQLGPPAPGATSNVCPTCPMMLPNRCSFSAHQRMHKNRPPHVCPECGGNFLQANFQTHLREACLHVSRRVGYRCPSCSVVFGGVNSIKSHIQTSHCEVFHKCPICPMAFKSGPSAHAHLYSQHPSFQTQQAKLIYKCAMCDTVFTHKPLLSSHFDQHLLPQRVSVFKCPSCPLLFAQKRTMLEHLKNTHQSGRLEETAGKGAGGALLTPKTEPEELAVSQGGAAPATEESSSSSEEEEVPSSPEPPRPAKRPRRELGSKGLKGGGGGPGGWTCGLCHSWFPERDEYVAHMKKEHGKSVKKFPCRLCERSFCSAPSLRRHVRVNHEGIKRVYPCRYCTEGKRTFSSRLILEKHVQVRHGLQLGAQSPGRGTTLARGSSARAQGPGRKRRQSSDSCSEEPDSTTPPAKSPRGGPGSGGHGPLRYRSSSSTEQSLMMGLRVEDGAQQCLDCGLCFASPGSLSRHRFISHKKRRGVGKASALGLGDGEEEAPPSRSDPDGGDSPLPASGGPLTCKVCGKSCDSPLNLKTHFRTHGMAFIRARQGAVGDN
UniProt Q8N5F7: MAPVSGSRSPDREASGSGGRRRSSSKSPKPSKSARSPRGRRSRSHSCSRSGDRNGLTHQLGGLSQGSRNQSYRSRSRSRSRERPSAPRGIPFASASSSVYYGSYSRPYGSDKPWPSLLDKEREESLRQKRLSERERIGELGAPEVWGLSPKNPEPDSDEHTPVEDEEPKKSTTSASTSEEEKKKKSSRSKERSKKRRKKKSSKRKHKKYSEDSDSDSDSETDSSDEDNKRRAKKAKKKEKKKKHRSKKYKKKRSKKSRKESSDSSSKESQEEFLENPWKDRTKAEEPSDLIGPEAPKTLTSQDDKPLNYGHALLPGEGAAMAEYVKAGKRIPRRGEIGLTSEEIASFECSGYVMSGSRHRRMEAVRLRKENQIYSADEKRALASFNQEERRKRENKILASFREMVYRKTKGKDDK
UniProt Q8IXK2: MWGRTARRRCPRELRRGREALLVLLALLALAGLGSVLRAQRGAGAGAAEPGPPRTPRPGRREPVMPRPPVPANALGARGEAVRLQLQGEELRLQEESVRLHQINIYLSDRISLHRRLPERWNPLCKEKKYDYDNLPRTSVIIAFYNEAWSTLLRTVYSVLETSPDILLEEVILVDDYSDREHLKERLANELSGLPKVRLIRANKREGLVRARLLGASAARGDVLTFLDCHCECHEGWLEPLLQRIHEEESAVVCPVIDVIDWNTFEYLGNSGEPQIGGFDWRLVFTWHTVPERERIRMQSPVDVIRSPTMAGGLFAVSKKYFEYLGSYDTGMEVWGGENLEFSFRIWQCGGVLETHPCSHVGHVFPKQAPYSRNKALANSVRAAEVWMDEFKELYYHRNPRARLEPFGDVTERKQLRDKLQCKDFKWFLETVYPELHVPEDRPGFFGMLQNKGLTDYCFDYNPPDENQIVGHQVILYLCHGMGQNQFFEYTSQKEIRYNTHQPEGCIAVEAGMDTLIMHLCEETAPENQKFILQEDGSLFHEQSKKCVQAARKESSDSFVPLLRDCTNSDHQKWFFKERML
UniProt Q8IUX7: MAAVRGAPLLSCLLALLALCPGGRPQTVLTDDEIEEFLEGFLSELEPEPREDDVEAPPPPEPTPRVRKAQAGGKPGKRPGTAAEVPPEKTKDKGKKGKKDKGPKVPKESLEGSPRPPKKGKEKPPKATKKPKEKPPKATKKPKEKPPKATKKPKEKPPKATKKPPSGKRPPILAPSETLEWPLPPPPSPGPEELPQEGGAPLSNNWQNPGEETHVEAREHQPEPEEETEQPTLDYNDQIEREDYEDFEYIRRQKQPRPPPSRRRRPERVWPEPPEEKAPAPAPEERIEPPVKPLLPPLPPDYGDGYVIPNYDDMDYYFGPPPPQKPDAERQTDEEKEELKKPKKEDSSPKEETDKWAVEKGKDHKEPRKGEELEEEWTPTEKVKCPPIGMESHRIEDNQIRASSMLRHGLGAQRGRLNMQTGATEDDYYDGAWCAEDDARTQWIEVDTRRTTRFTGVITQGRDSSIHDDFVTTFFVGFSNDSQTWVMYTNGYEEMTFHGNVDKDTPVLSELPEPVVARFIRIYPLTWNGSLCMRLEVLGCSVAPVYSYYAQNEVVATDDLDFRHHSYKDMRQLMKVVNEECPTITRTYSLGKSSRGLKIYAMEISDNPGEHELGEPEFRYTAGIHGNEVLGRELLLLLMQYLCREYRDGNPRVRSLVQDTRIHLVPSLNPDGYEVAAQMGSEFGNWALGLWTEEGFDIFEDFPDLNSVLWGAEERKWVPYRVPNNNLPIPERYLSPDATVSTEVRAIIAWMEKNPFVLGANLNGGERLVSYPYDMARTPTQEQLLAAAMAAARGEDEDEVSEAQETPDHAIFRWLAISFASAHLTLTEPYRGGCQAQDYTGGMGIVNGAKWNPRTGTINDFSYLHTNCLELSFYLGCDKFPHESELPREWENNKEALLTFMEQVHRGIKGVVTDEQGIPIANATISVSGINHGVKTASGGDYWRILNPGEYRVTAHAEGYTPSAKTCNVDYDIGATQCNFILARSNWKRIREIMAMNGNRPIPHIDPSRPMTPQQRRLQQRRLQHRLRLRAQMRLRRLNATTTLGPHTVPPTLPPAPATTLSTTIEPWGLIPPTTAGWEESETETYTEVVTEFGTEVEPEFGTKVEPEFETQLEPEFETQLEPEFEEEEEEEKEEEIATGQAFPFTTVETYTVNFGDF
UniProt Q86U42: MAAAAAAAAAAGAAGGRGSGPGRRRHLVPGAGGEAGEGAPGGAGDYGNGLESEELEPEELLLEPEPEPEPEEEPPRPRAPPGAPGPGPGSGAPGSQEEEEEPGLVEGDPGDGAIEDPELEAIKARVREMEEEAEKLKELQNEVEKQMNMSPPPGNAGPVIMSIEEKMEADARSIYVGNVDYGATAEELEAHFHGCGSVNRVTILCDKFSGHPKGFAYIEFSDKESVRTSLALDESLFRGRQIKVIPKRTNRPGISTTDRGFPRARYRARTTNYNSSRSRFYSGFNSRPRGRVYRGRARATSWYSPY
UniProt Q8IWV8: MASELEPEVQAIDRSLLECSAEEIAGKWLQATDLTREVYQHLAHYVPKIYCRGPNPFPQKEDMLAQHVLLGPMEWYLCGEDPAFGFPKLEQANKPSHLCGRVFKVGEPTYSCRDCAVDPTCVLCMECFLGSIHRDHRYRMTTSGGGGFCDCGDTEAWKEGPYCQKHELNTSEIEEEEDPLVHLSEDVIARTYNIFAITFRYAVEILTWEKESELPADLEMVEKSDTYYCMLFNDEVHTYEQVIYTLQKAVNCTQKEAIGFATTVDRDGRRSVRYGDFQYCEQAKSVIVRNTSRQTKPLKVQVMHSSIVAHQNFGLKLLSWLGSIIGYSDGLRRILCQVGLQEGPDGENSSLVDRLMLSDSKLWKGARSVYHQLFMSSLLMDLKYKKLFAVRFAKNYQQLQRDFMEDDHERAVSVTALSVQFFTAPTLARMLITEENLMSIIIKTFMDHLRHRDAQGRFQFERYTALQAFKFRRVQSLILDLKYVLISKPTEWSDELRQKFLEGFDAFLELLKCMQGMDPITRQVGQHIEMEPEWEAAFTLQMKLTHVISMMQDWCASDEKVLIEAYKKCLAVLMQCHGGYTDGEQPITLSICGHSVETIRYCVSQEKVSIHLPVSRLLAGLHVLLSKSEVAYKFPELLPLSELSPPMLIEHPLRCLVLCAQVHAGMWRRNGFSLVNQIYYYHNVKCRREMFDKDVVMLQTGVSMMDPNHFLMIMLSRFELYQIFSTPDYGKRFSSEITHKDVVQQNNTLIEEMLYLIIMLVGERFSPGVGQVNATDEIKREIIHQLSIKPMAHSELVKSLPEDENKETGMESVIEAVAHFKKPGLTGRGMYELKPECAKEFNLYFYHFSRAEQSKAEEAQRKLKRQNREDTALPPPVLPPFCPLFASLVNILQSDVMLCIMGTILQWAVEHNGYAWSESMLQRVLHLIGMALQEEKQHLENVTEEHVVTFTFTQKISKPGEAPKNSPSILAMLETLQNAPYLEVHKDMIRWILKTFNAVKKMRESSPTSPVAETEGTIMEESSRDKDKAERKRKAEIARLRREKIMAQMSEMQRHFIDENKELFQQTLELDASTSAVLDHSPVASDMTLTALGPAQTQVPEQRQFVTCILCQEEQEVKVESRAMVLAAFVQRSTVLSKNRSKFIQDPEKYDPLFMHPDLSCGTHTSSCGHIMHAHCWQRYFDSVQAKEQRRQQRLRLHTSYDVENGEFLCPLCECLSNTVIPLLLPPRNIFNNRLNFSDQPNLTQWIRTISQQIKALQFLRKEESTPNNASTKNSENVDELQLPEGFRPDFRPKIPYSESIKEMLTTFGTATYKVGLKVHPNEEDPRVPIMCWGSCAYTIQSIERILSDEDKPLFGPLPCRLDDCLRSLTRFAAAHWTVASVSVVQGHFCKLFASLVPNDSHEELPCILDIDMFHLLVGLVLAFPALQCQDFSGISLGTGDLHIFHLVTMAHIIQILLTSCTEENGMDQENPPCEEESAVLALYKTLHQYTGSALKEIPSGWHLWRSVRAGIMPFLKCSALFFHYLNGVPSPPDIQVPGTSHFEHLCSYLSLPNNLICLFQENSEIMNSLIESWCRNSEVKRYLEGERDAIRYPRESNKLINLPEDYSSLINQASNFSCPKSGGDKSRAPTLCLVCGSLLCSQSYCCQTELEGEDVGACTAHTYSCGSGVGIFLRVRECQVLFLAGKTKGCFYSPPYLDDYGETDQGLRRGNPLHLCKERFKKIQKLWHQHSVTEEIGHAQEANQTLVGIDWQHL

Compound: Nc1ncnc2c1ncn2[C@@H]1O[C@H](COP(=O)(O)OP(=O)(O)NP(=O)(O)O)[C@@H](O)[C@H]1O [adenylyl imidodiphosphate]
Experiment: NP40-soluble protein abundance relative to vehicle (solubility fold change) (ratio); higher = more soluble protein in presence of AMP-PNP
Summary of the method: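 Eight concentrations, 0.1 to 10 mM, were tested on Jurkat crude lysate for 10 min at room temperature and then 3 min at 37 °C, in three independent experiments. The lysate was solubilised with 0.8% NP40 and benzonase, ultracentrifuged, and the supernatant TMT-labelled for LC-MS/MS. Each value is the fold change against the detergent-processed vehicle in its own replicate, from vsn-normalised intensities.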

Target	NP40-soluble protein abundance (concentration: 1mM)	NP40-soluble protein abundance (concentration: 2mM)	NP40-soluble protein abundance (concentration: 4mM)	NP40-soluble protein abundance (concentration: 6mM)	NP40-soluble protein abundance (concentration: 8mM)	NP40-soluble protein abundance (concentration: 10mM)
TMED4 (UniProt Q7Z7H5)	1.017 ± 0.0076	0.973 ± 0.026	0.99 ± 0.032	1.02 ± 0.036	1.02 ± 0.025	1 ± 0.038
RAB43 (UniProt Q86YS6)	0.972 ± 0.035	0.915 ± 0.075	0.995 ± 0.025	1.01 ± 0.081	1.03 ± 0.038	0.988 ± 0.013
PDSS2 (UniProt Q86YH6)	0.984 ± 0.029	1.02 ± 0.026	0.999 ± 0.021	0.995 ± 0.02	0.98 ± 0.04	0.978 ± 0.024
UniProt Q8N9N2-2|E9PKM6 and related entries	0.964 ± 0.02	0.978 ± 0.036	0.989 ± 0.046	1.03 ± 0.041	1.04 ± 0.025	1.05 ± 0.041
UniProt Q86WA8 and related entries	0.994 ± 0.04	0.967 ± 0.089	1.02 ± 0.072	1.01 ± 0.07	0.989 ± 0.043	1.01 ± 0.084
UniProt Q86UX7 and related entries	0.963 ± 0.059	0.875 ± 0.075	0.958 ± 0.029	0.968 ± 0.065	1.02 ± 0.03	0.955 ± 0.03
UniProt Q86UY6	1.04 ± 0.06	1.1 ± 0.045	1.15 ± 0.077	1.15 ± 0.069	1.19 ± 0.087	1.23 ± 0.077
DCP1B (UniProt Q8IZD4)	0.996 ± 0.035	1.05 ± 0.04	1.03 ± 0.011	0.993 ± 0.018	0.964 ± 0.013	1.02 ± 0.021
UniProt Q86UT6 and related entries	1.01 ± 0.016	1.01 ± 0.014	1.01 ± 0.011	1.008 ± 0.0033	1.01 ± 0.024	1.01 ± 0.026
ZNF687 (UniProt Q8N1G0)	1.01 ± 0.046	1.034 ± 0.0073	1.051 ± 0.0088	1.04 ± 0.064	1.03 ± 0.03	1.1 ± 0.016
UniProt Q7Z7A3	0.997 ± 0.015	1 ± 0.011	1.02 ± 0.029	1.02 ± 0.022	1.026 ± 0.004	1.024 ± 0.0013
NKAP (UniProt Q8N5F7)	1.01 ± 0.013	1.08 ± 0.13	1.04 ± 0.058	1.08 ± 0.092	1.1 ± 0.074	1.12 ± 0.12
SMC5 (UniProt Q8IY18)	0.985 ± 0.018	0.98 ± 0.015	0.975 ± 0.015	0.9807 ± 0.0094	0.969 ± 0.011	0.994 ± 0.023
TMEM102 (UniProt Q8N9M5)	1.03 ± 0.039	1.05 ± 0.037	1.06 ± 0.021	1.01 ± 0.051	1.03 ± 0.022	1.044 ± 0.0053
ZCCHC9 (UniProt Q8N567)	1.07 ± 0.035	1.11 ± 0.031	1.13 ± 0.072	1.14 ± 0.014	1.15 ± 0.02	1.18 ± 0.056
UniProt Q8N2K0 and related entries	1.05 ± 0.022	1.01 ± 0.12	1.07 ± 0.019	1.01 ± 0.018	1.07 ± 0.026	1.04 ± 0.05
UniProt Q8N954 and related entries	1.05 ± 0.057	1.08 ± 0.053	1.09 ± 0.021	1.09 ± 0.025	1.11 ± 0.034	1.12 ± 0.025

Another view of part of the listing above:
UniProt Q86WA8 and related entries
  NP40-soluble protein abundance (concentration: 1mM): 0.994 ± 0.04
  NP40-soluble protein abundance (concentration: 2mM): 0.967 ± 0.089
  NP40-soluble protein abundance (concentration: 4mM): 1.02 ± 0.072
  NP40-soluble protein abundance (concentration: 6mM): 1.01 ± 0.07
  NP40-soluble protein abundance (concentration: 8mM): 0.989 ± 0.043
  NP40-soluble protein abundance (concentration: 10mM): 1.01 ± 0.084
UniProt Q86UX7 and related entries
  NP40-soluble protein abundance (concentration: 1mM): 0.963 ± 0.059
  NP40-soluble protein abundance (concentration: 2mM): 0.875 ± 0.075
  NP40-soluble protein abundance (concentration: 4mM): 0.958 ± 0.029
  NP40-soluble protein abundance (concentration: 6mM): 0.968 ± 0.065
  NP40-soluble protein abundance (concentration: 8mM): 1.02 ± 0.03
  NP40-soluble protein abundance (concentration: 10mM): 0.955 ± 0.03

The results go on:

Target	NP40-soluble protein abundance (concentration: 1mM)	NP40-soluble protein abundance (concentration: 2mM)	NP40-soluble protein abundance (concentration: 4mM)	NP40-soluble protein abundance (concentration: 6mM)	NP40-soluble protein abundance (concentration: 8mM)	NP40-soluble protein abundance (concentration: 10mM)
UniProt Q86VV8 and related entries	0.879 ± 0.039	0.847 ± 0.035	0.886 ± 0.086	0.962 ± 0.056	0.964 ± 0.06	0.917 ± 0.077
GALNT12 (UniProt Q8IXK2)	0.994 ± 0.021	0.941 ± 0.1	1.03 ± 0.049	0.9517 ± 0.0095	0.985 ± 0.018	0.977 ± 0.032
UniProt Q8IY17 and related entries	1.02 ± 0.029	1 ± 0.063	1.04 ± 0.037	1.02 ± 0.033	0.9697 ± 0.0062	0.988 ± 0.04
SMG6 (UniProt Q86US8)	1.06 ± 0.021	1.08 ± 0.05	1.08 ± 0.015	1.06 ± 0.065	1.08 ± 0.051	1.11 ± 0.067
TSEN54 (UniProt Q7Z6J9)	1.01 ± 0.03	1.03 ± 0.014	1.02 ± 0.018	0.99 ± 0.021	0.976 ± 0.018	0.997 ± 0.013
UniProt Q8IWF6	1.03 ± 0.044	0.985 ± 0.07	1.009 ± 0.0059	0.99 ± 0.013	0.9971 ± 0.0016	0.996 ± 0.013
LRRC8A (UniProt Q8IWT6)	0.983 ± 0.016	0.997 ± 0.032	0.983 ± 0.023	0.996 ± 0.017	0.99 ± 0.019	0.974 ± 0.019
VPS52 (UniProt Q8N1B4)	0.988 ± 0.021	0.959 ± 0.022	0.949 ± 0.011	0.922 ± 0.034	0.92 ± 0.043	0.909 ± 0.015
UniProt Q8IUX7	1.01 ± 0.036	1 ± 0.024	1.03 ± 0.014	0.983 ± 0.032	0.9724 ± 0.005	0.984 ± 0.0099
UniProt Q86U42 and related entries	0.976 ± 0.041	1 ± 0.028	0.981 ± 0.023	1.08 ± 0.03	1.06 ± 0.034	1.08 ± 0.025
UniProt Q7Z6L1 and related entries	0.934 ± 0.02	0.973 ± 0.034	0.9552 ± 0.0059	0.945 ± 0.038	0.911 ± 0.022	0.9308 ± 0.0085
RHOT2 (UniProt Q8IXI1)	1.02 ± 0.021	1 ± 0.073	1.02 ± 0.03	0.9999 ± 0.006	1.004 ± 0.01	1.02 ± 0.034
METTL3 (UniProt Q86U44)	1.02 ± 0.013	1.02 ± 0.017	1.02 ± 0.015	0.996 ± 0.013	0.999 ± 0.01	0.99 ± 0.017
UniProt Q8N2Z9	0.955 ± 0.054	0.966 ± 0.05	0.943 ± 0.034	0.954 ± 0.019	0.934 ± 0.061	0.936 ± 0.055
UniProt Q8IWV8 and related entries	0.974 ± 0.012	0.948 ± 0.078	1.01 ± 0.037	0.971 ± 0.013	0.975 ± 0.029	0.923 ± 0.035
UniProt Q8IYU8 and related entries	0.996 ± 0.056	0.956 ± 0.041	1.004 ± 0.0081	0.9874 ± 0.0039	1.01 ± 0.017	0.974 ± 0.018
CMIP (UniProt Q8IY22)	0.986 ± 0.047	0.964 ± 0.031	0.942 ± 0.029	0.958 ± 0.046	0.935 ± 0.022	0.923 ± 0.043
